{"sequences": {"note": "The chains behind the UniProt entries cited, without tags or fusion partners.", "UniProt Q96SW2": "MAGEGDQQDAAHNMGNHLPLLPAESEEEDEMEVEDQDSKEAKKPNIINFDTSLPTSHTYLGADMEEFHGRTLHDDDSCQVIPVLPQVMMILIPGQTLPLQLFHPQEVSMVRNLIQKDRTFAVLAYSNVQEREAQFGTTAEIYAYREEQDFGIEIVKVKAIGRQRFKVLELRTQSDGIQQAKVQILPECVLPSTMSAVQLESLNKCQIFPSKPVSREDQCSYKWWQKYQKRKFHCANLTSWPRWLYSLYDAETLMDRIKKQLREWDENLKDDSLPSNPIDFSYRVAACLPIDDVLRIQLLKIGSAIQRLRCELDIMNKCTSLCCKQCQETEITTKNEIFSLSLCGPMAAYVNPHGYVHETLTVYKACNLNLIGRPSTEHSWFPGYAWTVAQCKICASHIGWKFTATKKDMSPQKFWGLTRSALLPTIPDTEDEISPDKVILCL"}, "source": "paper PMC8748630", "target": "biotin-labelled bls-CRBN (UniProt Q96SW2)", "experiment": "AlphaScreen or HTRF; AlphaScreen: biotinylated bls-CRBN mixture, FLAG-GST-substrate mixture and DMSO or 20 µM IMiDs; 100 mM Tris pH 8.0, 0.01% Tween20, 100 mM NaCl, 1 mg/mL BSA, 26 °C 1 h; anti-DYKDDDDK mAb, streptavidin donor and Protein A acceptor beads; wheat cell-free proteins", "note": "These are yes or no findings as the source states them, for the method shown. Tags and fused reporters may be left off the sequences shown."}
{"binder": "FLAG-GST-ZMYM3 (protein, UniProt Q14202 1-1370) MDPSDFPSPFDPLTLPEKPLAGDLPVDMEFGEDLLESQTAPTRGWAPPGPSPSSGALDLLDTPAGLEKDPGVLDGATELLGLGGLLYKAPSPPEVDHGPEGTLAWDAGDQTLEPGPGGQTPEVVPPDPGAGANSCSPEGLLEPLAPDSPITLQSPHIEEEETTSIATARRGSPGQEEELPQGQPQSPNAPPSPSVGETLGDGINSSQTKPGGSSPPAHPSLPGDGLTAKASEKPPERKRSERVRRAEPPKPEVVDSTESIPVSDEDSDAMVDDPNDEDFVPFRPRRSPRMSLRSSVSQRAGRSAVGTKMTCAHCRTPLQKGQTAYQRKGLPQLFCSSSCLTTFSKKPSGKKTCTFCKKEIWNTKDSVVAQTGSGGSFHEFCTSVCLSLYEAQQQRPIPQSGDPADATRCSICQKTGEVLHEVSNGSVVHRLCSDSCFSKFRANKGLKTNCCDQCGAYIYTKTGSPGPELLFHEGQQKRFCNTTCLGAYKKKNTRVYPCVWCKTLCKNFEMLSHVDRNGKTSLFCSLCCTTSYKVKQAGLTGPPRPCSFCRRSLSDPCYYNKVDRTVYQFCSPSCWTKFQRTSPEGGIHLSCHYCHSLFSGKPEVLDWQDQVFQFCCRDCCEDFKRLRGVVSQCEHCRQEKLLHEKLRFSGVEKSFCSEGCVLLYKQDFTKKLGLCCITCTYCSQTCQRGVTEQLDGSTWDFCSEDCKSKYLLWYCKAARCHACKRQGKLLETIHWRGQIRHFCNQQCLLRFYSQQNQPNLDTQSGPESLLNSQSPESKPQTPSQTKVENSNTVRTPEENGNLGKIPVKTRSAPTAPTPPPPPPPATPRKNKAAMCKPLMQNRGVSCKVEMKSKGSQTEEWKPQVIVLPIPVPIFVPVPMHLYCQKVPVPFSMPIPVPVPMFLPTTLESTDKIVETIEELKVKIPSNPLEADILAMAEMIAEAEELDKASSDLCDLVSNQSAEGLLEDCDLFGPARDDVLAMAVKMANVLDEPGQDLEADFPKNPLDINPSVDFLFDCGLVGPEDVSTEQDLPRTMRKGQKRLVLSESCSRDSMSSQPSCTGLNYSYGVNAWKCWVQSKYANGETSKGDELRFGPKPMRIKEDILACSAAELNYGLAQFVREITRPNGERYEPDSIYYLCLGIQQYLLENNRMVNIFTDLYYLTFVQELNKSLSTWQPTLLPNNTVFSRVEEEHLWECKQLGVYSPFVLLNTLMFFNTKFFGLQTAEEHMQLSFTNVVRQSRKCTTPRGTTKVVSIRYYAPVRQRKGRDTGPGKRKREDEAPILEQRENRMNPLRCPVKFYEFYLSKCPESLRTRNDVFYLQPERSCIAESPLWYSVIPMDRSMLESMLNRILAVREIYEELGRPGEEDLD", "values": [{"measurement": "binding", "value": "no binding (tested: tested with DMSO or 20 µM IMiDs)"}]}
